Reference: patent EP3415523A1, “COMBINATION MEDICAMENT COMPRISING A PRODRUG AND INHALABLE CATALYST” (priority 2017, dated 2018)
At least one structure is not confirmed: it was looked up by name or label, or the drawing left a doubt.

Assay: Interval kinetics of deprotection (coumarin), alternating hydrogen and incubator atmosphere
Assay type: physicochemical
Settings: Fig. 4; intervals without hydrogen atmosphere; platinum nanoparticles 250 ppm or 500 ppm solution, MEM medium

## Cc1cc(=O)oc2cc(NC(=O)OCc3ccc([N+](=O)[O-])cc3)ccc12 [protected coumarin, p-Nitrobenzyloxycarbonyl Coumarin]
  reaction after incubation in the usual incubator atmosphere: the reaction was virtually stopped
